Experimental data as given in PMC3176784.
These are yes or no findings as the source states them, for the method shown. Binding seen in cells or lysates may run through a third protein. Some results given as binding are weak or reduced against the parent protein; the word gives no strength. For some of these results: Tags and fused reporters may be left off the sequences shown.

Amino acid sequences for entries named in this document (tags omitted).
UniProt P29351: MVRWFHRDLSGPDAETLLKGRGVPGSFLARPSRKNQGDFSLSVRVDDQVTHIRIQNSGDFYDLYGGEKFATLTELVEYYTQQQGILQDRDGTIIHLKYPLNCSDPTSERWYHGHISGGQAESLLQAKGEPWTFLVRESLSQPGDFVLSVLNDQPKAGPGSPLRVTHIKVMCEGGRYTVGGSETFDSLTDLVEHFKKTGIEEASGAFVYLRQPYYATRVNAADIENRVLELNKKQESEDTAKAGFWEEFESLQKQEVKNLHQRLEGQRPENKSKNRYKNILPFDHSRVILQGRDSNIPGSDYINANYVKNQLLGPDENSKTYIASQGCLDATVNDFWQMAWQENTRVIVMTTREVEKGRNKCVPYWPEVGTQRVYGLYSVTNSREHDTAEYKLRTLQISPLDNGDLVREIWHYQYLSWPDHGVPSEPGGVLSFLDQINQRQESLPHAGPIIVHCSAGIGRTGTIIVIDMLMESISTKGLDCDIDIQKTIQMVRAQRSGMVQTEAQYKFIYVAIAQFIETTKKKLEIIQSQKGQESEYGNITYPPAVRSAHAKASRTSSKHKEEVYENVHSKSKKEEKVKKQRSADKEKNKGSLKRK

Legend:
Assay in all cases: pull-down; GST fusion proteins with portions of PLC-β3-CT mixed with precleared lysates of Ba/F3 cells (with or without IL-3), 2 h at 4°C; lysis buffer 20 mM Tris-HCl pH 8.0, 150 mM NaCl, 1 mM EDTA, 1% Nonidet P-40; six washes; immunoblot with anti-Stat5 or anti-SHP-1; only the target purified
[1] = biological target: T1, GST fusion protein of PLC-β3 residues 983–1234 (mouse) (UniProt P51432)
T1 sequence: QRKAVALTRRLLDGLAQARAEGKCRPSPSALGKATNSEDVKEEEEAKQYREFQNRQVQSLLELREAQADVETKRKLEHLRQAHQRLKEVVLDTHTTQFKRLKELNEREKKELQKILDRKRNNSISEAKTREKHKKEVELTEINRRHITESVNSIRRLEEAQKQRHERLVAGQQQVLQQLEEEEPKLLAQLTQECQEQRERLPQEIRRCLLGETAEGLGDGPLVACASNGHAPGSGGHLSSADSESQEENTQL

[2] = biological target: T2, PLC-β3 peptide (1114–1132) (mouse) (UniProt P51432)
T2 sequence: KHKKEVELTEINRRHITES

[3] = biological target: T3, PLC-β3 region c (positions 1032–1069) (mouse) (UniProt P51432)
T3 sequence: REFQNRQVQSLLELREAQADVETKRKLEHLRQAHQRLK

[4] = biological target: T4, PLC-β3 region d (positions 1182–1209) (mouse) (UniProt P51432)
T4 sequence: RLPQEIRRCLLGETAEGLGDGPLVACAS

For “SH2 domain-containing protein phosphatase SHP-1 (from UniProt P29351 1-595) (enzyme)”, the binding [1] was “binds”, the binding [2] was “no binding” and the binding [3] was “binds”. The binding [4] was “binds”.
